The test concerns CD2F1 mice, L1210 leukemia ip, survival T/C. In words: NCI In Vivo Anticancer Drug Screen. Data for tumor model L1210 Leukemia (intraperitoneal) in CD2F1 (CDF1) mice. To be noted: T/C endpoint: mean survival time, higher T/C = longer survival. In short, it runs like this: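 Vehicle-treated tumor-bearing mice served as controls (C) for compound-treated mice (T). Reported figure is T divided by C.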

[1] abbreviates: dose: 0.25 mg/kg/injection, schedule: Q01DX009 (ip), vehicle: saline.
The mark [2] stands for this setting: dose: 0.5 mg/kg/injection, schedule: Q01DX009 (ip), vehicle: saline.
Setting [3] is: dose: 1.0 mg/kg/injection, schedule: Q01DX009 (ip), vehicle: saline.
The mark [4] stands for this setting: dose: 12.5 mg/kg/injection, schedule: Q01DX009 (ip), vehicle: water.
Setting [5] is: dose: 25.0 mg/kg/injection, schedule: Q01DX009 (ip), vehicle: water.
The mark [6] stands for this setting: dose: 50.0 mg/kg/injection, schedule: Q01DX009 (ip), vehicle: water.
Where [7] appears, read: dose: 100.0 mg/kg/injection, schedule: Q01DX009 (ip), vehicle: water.
Where [8] appears, read: dose: 200.0 mg/kg/injection, schedule: Q01DX009 (ip), vehicle: water.
[9] abbreviates: dose: 100.0 mg/kg/injection, schedule: Q04DX003 (ip), vehicle: saline with Tween-80.
Where [10] appears, read: dose: 200.0 mg/kg/injection, schedule: Q04DX003 (ip), vehicle: saline with Tween-80.
The mark [11] stands for this setting: dose: 400.0 mg/kg/injection, schedule: Q04DX003 (ip), vehicle: saline with Tween-80.

Here are results for 12 compounds from PubChem BioAssay AID256 (DTP/NCI, 2004).

The list does not hold the whole screen: its compounds were picked by chemical class. Not every dose and run of a compound is shown. T/C: endpoint of the treated group in % of that of the vehicle group. Some doses have a count of surviving animals in place of a T/C: the source files T/C as zero there, which appears to mark a toxic dose or a test without result, not a measured value. Some doses without a T/C left all or most animals alive at the check, yet need not have been tolerated: the source hardly ever lists a survival T/C far under the control, and the zero likely stands for such cases as well. Survivors were counted at the toxicity check, usually on the fifth day, unless a day is given; later deaths do not show. Schedules are NCI's codes, taken here to give the interval after Q, in days (D) or hours (H), and the number of doses after X. For survival time, the PubChem record calls one and a half times the control and up active, and a quarter to a half above the control has no call in these data; cut-offs in other NCI protocols can differ. Marks such as (2×) stand for listed records that agree. Some T/C values carry the count of animals alive at the toxicity check (mostly the fifth day); without a count or a note in brackets, all were alive then. Some entries hold several experiments; the values are given in rising order. Some T/C values are marked as having no survivor count here; that says nothing about deaths at the dose.

As to `CN(C)C(=O)OCC[n+]1cccc(OC(=O)N(C)C)c1`, the T/C was 98 % of control under setting [1], 104 % of control under setting [2] and 100 % of control under setting [3]. The survivor count is 1 of 6 (dose: 5.0 mg/kg/injection, schedule: Q01DX009 (ip), vehicle: saline); 0 of 6 (dose: 10.0 mg/kg/injection, schedule: Q01DX009 (ip), vehicle: saline); 0 of 6 (dose: 20.0 mg/kg/injection, schedule: Q01DX009 (ip), vehicle: saline).

Take `CCCCc1ccc(N(CCCl)CCCl)cc1`: the T/C was 103 % of control (dose: 6.25 mg/kg/injection, schedule: Q01DX009 (ip), vehicle: Klucel (hydroxypropylcellulose) (HPC)); 105 % of control (dose: 12.5 mg/kg/injection, schedule: Q01DX009 (ip), vehicle: Klucel (hydroxypropylcellulose) (HPC)); 92 and 103 % of control (dose: 25.0 mg/kg/injection, schedule: Q01DX009 (ip), vehicle: Klucel (hydroxypropylcellulose) (HPC)); 95 and 111 % of control (dose: 50.0 mg/kg/injection, schedule: Q01DX009 (ip), vehicle: Klucel (hydroxypropylcellulose) (HPC)); 105 and 108 % of control [5 of 6 alive] (dose: 100.0 mg/kg/injection, schedule: Q01DX009 (ip), vehicle: Klucel (hydroxypropylcellulose) (HPC)); 101 and 108 % of control (dose: 200.0 mg/kg/injection, schedule: Q01DX009 (ip), vehicle: Klucel (hydroxypropylcellulose) (HPC)). Besides, the survivor count (dose: 400.0 mg/kg/injection, schedule: Q01DX009 (ip), vehicle: Klucel (hydroxypropylcellulose) (HPC)) is 3 of 6.

In the case of `Cc1ccc([N+](=O)[O-])cc1NC(=O)NNc1c([N+](=O)[O-])cc(C(F)(F)F)cc1[N+](=O)[O-]`, the T/C was 92 % of control (dose: 100.0 mg/kg/injection, schedule: Q01DX009 (ip), vehicle: saline with Tween-80); 92 % of control [5 of 6 alive] (dose: 200.0 mg/kg/injection, schedule: Q01DX009 (ip), vehicle: saline with Tween-80); 97 % of control [4 of 6 alive] (dose: 400.0 mg/kg/injection, schedule: Q01DX009 (ip), vehicle: saline with Tween-80).

For `C=CS(=O)(=O)C=C`, the T/C is 100 % of control under setting [1], 103 % of control under setting [2] and 103 % of control under setting [3]. The survivor count (dose: 5.0 mg/kg/injection, schedule: Q01DX009 (ip), vehicle: saline with Tween-80) is reported as 1 of 6; the survivor count (dose: 10.0 mg/kg/injection, schedule: Q01DX009 (ip), vehicle: saline with Tween-80) is listed as 0 of 6; the survivor count (dose: 20.0 mg/kg/injection, schedule: Q01DX009 (ip), vehicle: saline with Tween-80) is 0 of 6.

With `CC(C)NCCN(C(=N)C(=N)N(CCNC(C)C)C(C)C)C(C)C.O=[N+]([O-])c1cc([N+](=O)[O-])c(O)c([N+](=O)[O-])c1`, the T/C by setting is: (dose: 100.0 mg/kg/injection, schedule: Q04DX002 (ip), vehicle: saline with Tween-80) 93 % of control; (dose: 200.0 mg/kg/injection, schedule: Q04DX002 (ip), vehicle: saline with Tween-80) 89 % of control. The survivor count (dose: 400.0 mg/kg/injection, schedule: Q04DX002 (ip), vehicle: saline with Tween-80) is given as 1 of 3.

Turning to `NP(=O)(OCCCCO)N(CCCl)CCCl` (stereo not drawn), the T/C was 91 % of control under setting [4]; 91 % of control under setting [5]; 100 % of control (dose: 31.3 mg/kg/injection, schedule: Q01DX001 (ip), vehicle: DMSO); 86 % of control under setting [6]; 106 % of control (dose: 62.5 mg/kg/injection, schedule: Q01DX001 (ip), vehicle: DMSO); 92 % of control under setting [7]. Besides, the T/C was 102 % of control (dose: 125.0 mg/kg/injection, schedule: Q01DX001 (ip), vehicle: DMSO); 96 % of control under setting [8]; 102 % of control (dose: 250.0 mg/kg/injection, schedule: Q01DX001 (ip), vehicle: DMSO); 100 % of control (dose: 500.0 mg/kg/injection, schedule: Q01DX001 (ip), vehicle: DMSO).

On to `CCCCCCCCCCCCOP(=O)(O)CCC`, for which, under setting [9], the T/C was 94 % of control [survivor count not shown].

As to `O=P1(N(CCCl)CCCl)NCC(CO)O1` (stereo not drawn), the T/C was 101 and 103 % of control (dose: 6.25 mg/kg/injection, schedule: Q01DX009 (ip), vehicle: water); 94 % of control (2×) under setting [4]; 97 and 101 % of control (dose: 23.3 mg/kg/injection, schedule: Q01DX001 (ip), vehicle: water); 97 and 100 % of control under setting [5]; 101 % of control (2×) (dose: 38.9 mg/kg/injection, schedule: Q01DX001 (ip), vehicle: water); 95 and 101 % of control under setting [6]. Further, the T/C (dose: 64.8 mg/kg/injection, schedule: Q01DX001 (ip), vehicle: water) is 98 and 101 % of control; the T/C under setting [7] was 100 and 101 % of control; the T/C (dose: 108.0 mg/kg/injection, schedule: Q01DX001 (ip), vehicle: water) was 101 % of control (2×); the T/C (dose: 180.0 mg/kg/injection, schedule: Q01DX001 (ip), vehicle: water) is 98 and 101 % of control; the T/C under setting [8] was 101 and 114 % of control; the T/C (dose: 300.0 mg/kg/injection, schedule: Q01DX001 (ip), vehicle: water) was 101 and 107 % of control.

On to `CC1C[P+](c2ccccc2)(c2ccccc2)Cc2ccccc21.F[P-](F)(F)(F)(F)F` (stereo not drawn), for which the T/C runs as follows: (dose: 6.25 mg/kg/injection, schedule: Q04DX003 (ip), vehicle: saline with Tween-80) 117 % of control; (dose: 12.5 mg/kg/injection, schedule: Q04DX003 (ip), vehicle: saline with Tween-80) 98 % of control. Besides, the survivor count (dose: 25.0 mg/kg/injection, schedule: Q04DX003 (ip), vehicle: saline with Tween-80) is 2 of 3; the survivor count under setting [9] is listed as 0 of 3; the survivor count under setting [10] was 0 of 3; the survivor count under setting [11] is 0 of 3.

`CCC(C)(C)c1c([N+](=O)[O-])c(C)c([N+](=O)[O-])c(C)c1[N+](=O)[O-]`: the T/C was 93 % of control under setting [9], 89 % of control under setting [10] and 93 % of control under setting [11].

On to `CCC(CC)NC(C)CO.O=[N+]([O-])c1cc([N+](=O)[O-])c(O)c([N+](=O)[O-])c1`, for which the T/C (dose: 75.0 mg/kg/injection, schedule: Q01DX001 (ip), vehicle: other) is 97 % of control [survivor count not shown]; the T/C (dose: 150.0 mg/kg/injection, schedule: Q01DX001 (ip), vehicle: other) is 95 % of control [survivor count not shown]; the T/C (dose: 300.0 mg/kg/injection, schedule: Q01DX001 (ip), vehicle: other) was 103 % of control [survivor count not shown].

As for `Cc1ccc(S(=O)(=O)N(CCCN)CCCc2c(C)nc(N)[nH]c2=O)cc1.O=[N+]([O-])c1cc([N+](=O)[O-])c(O)c([N+](=O)[O-])c1`, the T/C is, setting by setting: under setting [9], 97 % of control; under setting [10], 97 % of control; under setting [11], 97 % of control.
